For 42 sequences, binding signal results are on record in PMC7819943, “Rice protein-binding microarrays: a tool to detect cis-acting elements near promoter regions in rice”.

Sequences of proteins named here, by UniProt entry; tags and fusion partners are left off.
UniProt Q0JBA9, entry or part of it: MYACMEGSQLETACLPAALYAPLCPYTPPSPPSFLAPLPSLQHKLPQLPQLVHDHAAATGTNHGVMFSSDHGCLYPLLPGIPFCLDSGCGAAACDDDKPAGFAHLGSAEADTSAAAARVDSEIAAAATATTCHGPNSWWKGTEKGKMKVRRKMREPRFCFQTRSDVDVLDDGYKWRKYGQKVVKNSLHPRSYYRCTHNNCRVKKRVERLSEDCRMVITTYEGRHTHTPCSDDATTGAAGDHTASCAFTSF

The other results are listed elsewhere or left out.

The experiment addresses OsWRKY34 (Oryza sativa, UniProt Q0JBA9 1-250). The experiment in a line: protein-binding microarray (RPBM); PBS, 2% BSA, 51.3 ng/ul salmon testes DNA, 50 uM zinc acetate, 200 nM TF, 25 C, 1 h; high values mean tight binding. Particulars: protein: recombinant; tags: N-terminal polyhistidine and DsRed monomer fusion (pET32a); label: CyDye5-dUTP incorporated in the synthesized complementary strand; 3' TTTTT single-stranded linker to array surface; dsDNA, one strand shown. A digest of the protocol:
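In PBS with 2% BSA, salmon testes DNA and 50 µM zinc acetate, 200 nM protein was incubated on a custom Agilent array at 25 °C for 1 h and then washed off. The array had been made double-stranded by primer extension with Cy5-dUTP and blocked with 2% BSA. The proteins were transcription factors fused N-terminally to polyhistidine and DsRed, expressed in E. coli BL21-CodonPlus and purified on Ni–NTA. The binding signal is per-feature fluorescence intensity (arbitrary units) from an Axon 4000B scanner.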
Consider “GTTTGATTTTGTGATGCGTCTTCGGTTAGACTTTGAACCTCGGAGTCACCTAGTGCAG”, for which the binding signal was 8240 fluorescence intensity (a.u.).
To “ATGTTCCGAACAACGTGTTGTGTATTTTTCCTGTGGTTTTCGGAGTCACCTAGTGCAG” belongs 9390 fluorescence intensity (a.u.).
Consider “CATCTTCCACTCAGTCACTCTCCGTCCTCTCCTGTCGACGCGGAGTCACCTAGTGCAG”, for which the binding signal was 11400 fluorescence intensity (a.u.).
Turning to “GCTCGCCACACACCCCAAATCCTCCGCGCGGCCACGCCTACGGAGTCACCTAGTGCAG”, the binding signal is 8240 fluorescence intensity (a.u.).
Turning to “CTCCTCCGGCCGCCTCCGCCTCCGCCTCCGCTCCCGCCTGCGGAGTCACCTAGTGCAG”, the binding signal is 10700 fluorescence intensity (a.u.).
In the case of “TTCGGCACCACGATCCACCTCCGGGATTGCCGCCGCGCCACGGAGTCACCTAGTGCAG”, the binding signal was 8240 fluorescence intensity (a.u.).
As for “CCGCCGGACTCTCAAAATCCCAAGTCTCAACTCGATCAGCCGGAGTCACCTAGTGCAG”, the figure is 8170 fluorescence intensity (a.u.); as for “ATCCGATTTTTTTTCGCAATCTCCGAAATTTCACTTCTATCGGAGTCACCTAGTGCAG”, 11200 fluorescence intensity (a.u.); as for “TTATGATTTCAACATGATAGTTGGGTAGTGATGGTCCACTCGGAGTCACCTAGTGCAG”, 9630 fluorescence intensity (a.u.).
To “CTCTGAATCCACACAACCCTATCCTTATCCCCAACGCTACCGGAGTCACCTAGTGCAG” belongs 8470 fluorescence intensity (a.u.).
As for “GTCAACTGCCTATCCTAGATATCTATCACTACCGAAAGCCCGGAGTCACCTAGTGCAG”, the figure is 8930 fluorescence intensity (a.u.); as for “TACATAACCAGTATGTTTTGCTAGCCCATTTGTCTTGTTTCGGAGTCACCTAGTGCAG”, 9880 fluorescence intensity (a.u.); as for “GCACACGCATACACATCGCAAGCCGCCCAAACCCTACACACGGAGTCACCTAGTGCAG”, 9240 fluorescence intensity (a.u.).
“CCTATAATTCACCAACCGGCTTTTACATCCTTCATACTTCCGGAGTCACCTAGTGCAG”: the binding signal is 9490 fluorescence intensity (a.u.).
For “GCGCCGTGGGGTTCATTGGGACTTGGGAGGGATAGGAAATCGGAGTCACCTAGTGCAG”, the binding signal is 16300 fluorescence intensity (a.u.).
To “TTCACTATAAATATATGGTCCACCTGTCTGTCTCACATATCGGAGTCACCTAGTGCAG” belongs 12400 fluorescence intensity (a.u.); to “GCATATTCATTTTTGCTTTTCAAATTTTATTTTCAAATTTCGGAGTCACCTAGTGCAG”, 8450 fluorescence intensity (a.u.).
Take “GGAGCAATTTTTATGGGTGGGCTTCGAGCCTTCCTTGTCCCGGAGTCACCTAGTGCAG”: the binding signal was 10300 fluorescence intensity (a.u.).
As for “TATATTCTCATGCACCAAGCAACCACACGTACACCTATATCGGAGTCACCTAGTGCAG”, the figure is 8020 fluorescence intensity (a.u.); as for “GCGTGGGGCGCCGGTGGCGGAGGGTGGGGACGACAACCAGCGGAGTCACCTAGTGCAG”, 9770 fluorescence intensity (a.u.).
With “CAGTCTTGTCCTTTTGCTTTACAGCCCTTTTGCAAATGCACGGAGTCACCTAGTGCAG”, the binding signal is 11700 fluorescence intensity (a.u.).
Regarding “ATTCTTCCGGGGTGTACATTTTAGAGTCCAGTGCAACAGTCGGAGTCACCTAGTGCAG”, the binding signal is 8220 fluorescence intensity (a.u.).
As for “TTTGCGTAGTGGAGGTTTTTTTCCTTTTTTTTTTTTTTTTCGGAGTCACCTAGTGCAG”, the figure is 11800 fluorescence intensity (a.u.).
Regarding “ATTGTTGCGGTTTGGACTACTATAAACAACTTTTCTCGTCCGGAGTCACCTAGTGCAG”, the binding signal was 8970 fluorescence intensity (a.u.).
As for “TCTTGTGTGGGCATCTTAACTTCATATTTGCAATATATTTCGGAGTCACCTAGTGCAG”, the figure is 8860 fluorescence intensity (a.u.).
To “TCCTTTACCTTTTCTGTACTTGTAGAGTATATTATAATAACGGAGTCACCTAGTGCAG” belongs 8890 fluorescence intensity (a.u.); to “TTTTCTCAATGCAGTCTTTTTCTGTTGAGGGTGTGTTTAGCGGAGTCACCTAGTGCAG”, 8540 fluorescence intensity (a.u.); to “GTACACGTGGGCGGGGCAGATCGATCTTAGATACATACAGCGGAGTCACCTAGTGCAG”, 9420 fluorescence intensity (a.u.).
Consider “TTCGTTTGACAATACACTTTCTCAACTTCTACTATCTTATCGGAGTCACCTAGTGCAG”, for which the binding signal is 8250 fluorescence intensity (a.u.).
For the sequence “GTGGCTACGTATCAAAGGTGGTTGGGTGGTGGTGGCTACTCGGAGTCACCTAGTGCAG”, the binding signal was 9720 fluorescence intensity (a.u.).
On to “TACTCCATTCCATCCGTTTGCAAATACTTCTCAATTTTTACGGAGTCACCTAGTGCAG”, for which the binding signal is 10400 fluorescence intensity (a.u.).
As for “TTCTATCTTGACTGTTGACTGAAAATTTTACTAGTACCTTCGGAGTCACCTAGTGCAG”, the figure is 9410 fluorescence intensity (a.u.); as for “ATCCCTCCACCAACCAGCACGTTTTCTCCTCACTTAATCACGGAGTCACCTAGTGCAG”, 8570 fluorescence intensity (a.u.); as for “GTGGGGCTCAGGGGTTTATCTCCAATTAGTTTGGAATTCTCGGAGTCACCTAGTGCAG”, 9710 fluorescence intensity (a.u.).
Regarding “TTATGTTTTCCGTATGCACTGTTCTGGATGAGCACACGCTCGGAGTCACCTAGTGCAG”, the binding signal is 9020 fluorescence intensity (a.u.).
Take “GCTCTTATTCCGGGGTTTAAGCGTTTTTACCGAAGCGAAACGGAGTCACCTAGTGCAG”: the binding signal was 10400 fluorescence intensity (a.u.).
On to “CTGCCTCGCTGCCGCCTGCCGTCTCCCCGGGCCCATCTTTCGGAGTCACCTAGTGCAG”, for which the binding signal is 8210 fluorescence intensity (a.u.).
To “GCCGCCTGCCGCCGCCGCTTGCCCGCTGTGCCACCCACCCCGGAGTCACCTAGTGCAG” belongs 8050 fluorescence intensity (a.u.); to “ATCTCCGTCGGTGGGGAAAAGGAGGTGGGGAGGGGAGGAGCGGAGTCACCTAGTGCAG”, 18800 fluorescence intensity (a.u.).
On to “GATTTAAAATATCTTCATTTCCACACAACGTTGACTGGGTCGGAGTCACCTAGTGCAG”, for which the binding signal is 9510 fluorescence intensity (a.u.).
Take “CTCTAGCTCGTTGTAGCAATATCTCGTTGTAGCCATTTATCGGAGTCACCTAGTGCAG”: the binding signal is 8110 fluorescence intensity (a.u.).
“CACCCTCGTTTCCACCCGCGCCCGCGCGCCGCGCGCCACTCGGAGTCACCTAGTGCAG”: the binding signal was 10800 fluorescence intensity (a.u.).
